Data source: PubChem BioAssay AID504764 (Drosophila RNAi Screening Center, 2011)
The deposit covers about 22,000 reagents; this is a random part of those that have a named target and a result. Of all reagents, 403 (1.9%) got an active call. 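Unnormalised raw counts per well; ratio z-scores behind the hit calls and whether each hit raises or lowers signal are not deposited.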 Not given: the amount of reagent.

Aim: 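Genes whose knock-down alters Notch-dependent transcription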 (primary screen)
System: Drosophila Kc167 cells
Knock-down reagent: long dsRNA against Drosophila genes
Timing: about 5 days (4 days dsRNA, then 24 h after transfection)
Conditions: transfection of constitutively active membrane-tethered Notch lacking the extracellular domain, read 24 h later
Read-out: 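Firefly luciferase from an E(spl)m3 reporter with active Notch, plus control-promoter and uninduced reporter wells for normalisation; unnormalised counts, duplicate wells a and b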
Reading the numbers: induced reporter light, run 1, well a and induced reporter light, run 1, well b: higher = more light from the Notch target reporter with active Notch; control promoter light, run 1, well a and control promoter light, run 1, well b: higher = more light from the viral control promoter (cell number, transfection, viability); uninduced reporter light, run 1, well a: higher = more light from the Notch target reporter without active Notch
Rule for the call: 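Hit if the duplicate-averaged log2 ratio of induced to control-promoter light gives a plate-wise z beyond ±2, or induced to uninduced beyond ±1.8; weak-control or discordant-duplicate wells dropped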
Meaning of the calls: active = modifier hit (raised or lowered Notch signal); inactive = not a hit

CG3652 [DRSC00624] scored induced reporter light, run 1, well a = 1.47e5; induced reporter light, run 1, well b = 1.39e5; control promoter light, run 1, well a = 1.38e5; control promoter light, run 1, well b = 1.58e5; uninduced reporter light, run 1, well a = 8670; inactive.
For Gr59b [DRSC04179], the values are induced reporter light, run 1, well a = 2.28e5; induced reporter light, run 1, well b = 2.07e5; control promoter light, run 1, well a = 1.85e5; control promoter light, run 1, well b = 1.56e5; uninduced reporter light, run 1, well a = 14290; inactive.
For eco [DRSC11006], the values are induced reporter light, run 1, well a = 1.08e5; induced reporter light, run 1, well b = 1.03e5; control promoter light, run 1, well a = 69255; control promoter light, run 1, well b = 33085; uninduced reporter light, run 1, well a = 8978; inactive.
For CheB42c [DRSC04972], the values are induced reporter light, run 1, well a = 2.19e5; induced reporter light, run 1, well b = 2.06e5; control promoter light, run 1, well a = 2.31e5; control promoter light, run 1, well b = 1.96e5; uninduced reporter light, run 1, well a = 17275; inactive.
With knock-down of CG9503 [DRSC20186] the results were induced reporter light, run 1, well a = 86055; induced reporter light, run 1, well b = 76095; control promoter light, run 1, well a = 84975; control promoter light, run 1, well b = 68245; uninduced reporter light, run 1, well a = 12332; inactive.
Silencing of CG31797 [DRSC02476] resulted in: induced reporter light, run 1, well a = 52440; induced reporter light, run 1, well b = 51700; control promoter light, run 1, well a = 60105; control promoter light, run 1, well b = 51540; uninduced reporter light, run 1, well a = 2980; inactive.
CG31797 [DRSC02477] showed induced reporter light, run 1, well a = 29960; induced reporter light, run 1, well b = 37085; control promoter light, run 1, well a = 40165; control promoter light, run 1, well b = 31900; uninduced reporter light, run 1, well a = 2360; inactive.
For COX5B [DRSC02115], the values are induced reporter light, run 1, well a = 1.73e5; induced reporter light, run 1, well b = 1.21e5; control promoter light, run 1, well a = 1.67e5; control promoter light, run 1, well b = 1.52e5; uninduced reporter light, run 1, well a = 10210; inactive.
Against CG15711 [DRSC06582], the values are induced reporter light, run 1, well a = 1.46e5; induced reporter light, run 1, well b = 96450; control promoter light, run 1, well a = 1.24e5; control promoter light, run 1, well b = 1.36e5; uninduced reporter light, run 1, well a = 10995; inactive.
Knock-down of JhI-21 [DRSC02161] resulted in: induced reporter light, run 1, well a = 1.77e5; induced reporter light, run 1, well b = 2.29e5; control promoter light, run 1, well a = 1.77e5; control promoter light, run 1, well b = 1.55e5; uninduced reporter light, run 1, well a = 14645; inactive.
CG32445 [DRSC11678] scored induced reporter light, run 1, well a = 16615; induced reporter light, run 1, well b = 11820; control promoter light, run 1, well a = 17180; control promoter light, run 1, well b = 16310; uninduced reporter light, run 1, well a = 1120; inactive.
Against CG17528 [DRSC07761], the values are induced reporter light, run 1, well a = 1.58e5; induced reporter light, run 1, well b = 1.75e5; control promoter light, run 1, well a = 2.62e5; control promoter light, run 1, well b = 2.69e5; uninduced reporter light, run 1, well a = 9955; inactive.

Taken from above.
Entry of CG3652 [DRSC00624] in “control promoter light, run 1, well a”: 1.38e5
CG31797 [DRSC02476], uninduced reporter light, run 1, well a: 2980
